Data reported in patent publication US9113631B2, “1,3-diaryl-substituted heterocyclic pesticides” (E I DU PONT DE NEMOURS AND COMPANY, priority 2011, dated 2015).
Some of these results come from one statement about several compounds together. For at least one compound, name, drawing or mass did not settle the structure.

Assays:
Type in all cases: in vivo
[1] = test system: diamondback moth (Plutella xylostella); assay: Test A: control of diamondback moth on radish plant, foliar spray; conditions: neonate larvae on radish plant, 6 days, 25° C., visually assessed
[2] = test system: fall armyworm (Spodoptera frugiperda); assay: Test B: control of fall armyworm on maize plant, foliar spray; conditions: 1-day-old larvae on maize plant, 25° C., visually rated
[3] = test system: Western Flower Thrips (Frankliniella occidentalis); assay: Test G: control of Western Flower Thrips on Soleil bean plant, contact and/or systemic; conditions: adult thrips on Soleil bean plant, 7 days, 25° C.
[4] = test system: potato leafhopper (Empoasca fabae); assay: Test F: control of potato leafhopper on Soleil bean plant, contact and/or systemic; conditions: sprayed at 250 ppm; adults on Soleil bean plant; 6 days, 24° C.
[5] = test system: green peach aphid (Myzus persicae); assay: Test C: control of green peach aphid on radish plant, contact and/or systemic; conditions: sprayed at 250 ppm, 6 days, 19-21° C.

## N#CC1CCN(Cc2cn(-c3ccc(OC(F)(F)F)cc3)nc2-c2c(F)cccc2F)CC1 [Compound 79]
[1]; sprayed at 50 ppm
  control efficacy, very good to excellent: feeding damage (40% or less feeding damage and/or 100% mortality): ≤ 40%
[1]; sprayed at 250 ppm
  control efficacy, very good to excellent: feeding damage (40% or less feeding damage and/or 100% mortality): ≤ 40%
[2]; sprayed at 50 ppm
  control efficacy, very good to excellent: feeding damage (40% or less feeding damage and/or 100% mortality): ≤ 40%
[3]; sprayed at 250 ppm
  control efficacy, very good to excellent: plant damage (40% or less plant damage and/or 100% mortality): ≤ 40%
[4]
  control efficacy, very good to excellent: mortality: ≥ 80%

## N#CC1CCN(Cc2cn(-c3ccc(OC(F)(F)F)cc3)nc2-c2ccccc2F)CC1 [Compound 63]
[1]; sprayed at 50 ppm
  control efficacy, very good to excellent: feeding damage (40% or less feeding damage and/or 100% mortality): ≤ 40%
[1]; sprayed at 250 ppm
  control efficacy, very good to excellent: feeding damage (40% or less feeding damage and/or 100% mortality): ≤ 40%
[2]; sprayed at 50 ppm
  control efficacy, very good to excellent: feeding damage (40% or less feeding damage and/or 100% mortality): ≤ 40%
[3]; sprayed at 250 ppm
  control efficacy, very good to excellent: plant damage (40% or less plant damage and/or 100% mortality): ≤ 40%
[4]
  control efficacy, very good to excellent: mortality: ≥ 80%

## COC(=O)C1CCN(Cc2cn(-c3ccc(F)cc3)nc2-c2ccccc2C)CC1 [Compound 512]
[1]; sprayed at 50 ppm
  control efficacy, very good to excellent: feeding damage (40% or less feeding damage and/or 100% mortality): ≤ 40%
[5]
  mortality: at least 80%

## COC(=O)C1CCN(Cc2cn(-c3ccc(OC(F)(F)F)cc3)nc2-c2ccc(F)cc2F)CC1 [Compound 67]
[1]; sprayed at 50 ppm
  control efficacy, very good to excellent: feeding damage (40% or less feeding damage and/or 100% mortality): ≤ 40%
[1]; sprayed at 250 ppm
  control efficacy, very good to excellent: feeding damage (40% or less feeding damage and/or 100% mortality): ≤ 40%
[3]; sprayed at 250 ppm
  control efficacy, very good to excellent: plant damage (40% or less plant damage and/or 100% mortality): ≤ 40%

## COC(=O)C1CCN(Cc2cn(-c3cccc(C(F)(F)F)c3)nc2-c2ccc(F)cc2)C1 (centres unmarked) [Compound 404]
[1]; sprayed at 50 ppm
  control efficacy, very good to excellent: feeding damage (40% or less feeding damage and/or 100% mortality): ≤ 40%
[1]; sprayed at 250 ppm
  control efficacy, very good to excellent: feeding damage (40% or less feeding damage and/or 100% mortality): ≤ 40%
[2]; sprayed at 250 ppm
  control efficacy, very good to excellent: feeding damage (40% or less feeding damage and/or 100% mortality): ≤ 40%
[3]; sprayed at 50 ppm
  control efficacy, very good to excellent: plant damage (40% or less plant damage and/or 100% mortality): ≤ 40%

## Fc1ccccc1-c1nn(-c2ccc(Cl)cc2)cc1CN1CCCC2(COC2)C1 [Compound 625]
[5]
  mortality: at least 80%

## COC(=O)C1CCN(Cc2cn(-c3ccc(Cl)c(Cl)c3)nc2-c2ccccc2F)CC1 [Compound 102]
[1]; sprayed at 50 ppm
  control efficacy, very good to excellent: feeding damage (40% or less feeding damage and/or 100% mortality): ≤ 40%
[3]; sprayed at 250 ppm
  control efficacy, very good to excellent: plant damage (40% or less plant damage and/or 100% mortality): ≤ 40%
[4]
  control efficacy, very good to excellent: mortality: ≥ 80%

## COC(=O)C1CCN(Cc2cn(-c3cccc(Cl)c3)nc2-c2ccccc2F)CC1 [Compound 88]
[1]; sprayed at 50 ppm
  control efficacy, very good to excellent: feeding damage (40% or less feeding damage and/or 100% mortality): ≤ 40%
[5]
  mortality: at least 80%

## N#CC1CCN(Cc2cn(-c3ccc(Cl)c(Cl)c3)nc2-c2ccccc2F)CC1 [Compound 56]
[1]; sprayed at 50 ppm
  control efficacy, very good to excellent: feeding damage (40% or less feeding damage and/or 100% mortality): ≤ 40%
[1]; sprayed at 250 ppm
  control efficacy, very good to excellent: feeding damage (40% or less feeding damage and/or 100% mortality): ≤ 40%
[2]; sprayed at 50 ppm
  control efficacy, very good to excellent: feeding damage (40% or less feeding damage and/or 100% mortality): ≤ 40%
[3]; sprayed at 250 ppm
  control efficacy, very good to excellent: plant damage (40% or less plant damage and/or 100% mortality): ≤ 40%
[4]
  control efficacy, very good to excellent: mortality: ≥ 80%

## COC(=O)C1CCN(Cc2cn(-c3ccc(F)cc3F)nc2-c2ccccc2C)CC1 [Compound 3]
[1]; sprayed at 250 ppm
  control efficacy, very good to excellent: feeding damage (40% or less feeding damage and/or 100% mortality): ≤ 40%
[5]
  mortality: at least 80%

## COC(=O)C1CCN(Cc2cn(-c3ccc(C(F)(F)F)cn3)nc2-c2ccccc2F)CC1 [Compound 81]
[1]; sprayed at 50 ppm
  control efficacy, very good to excellent: feeding damage (40% or less feeding damage and/or 100% mortality): ≤ 40%
[1]; sprayed at 250 ppm
  control efficacy, very good to excellent: feeding damage (40% or less feeding damage and/or 100% mortality): ≤ 40%
[3]; sprayed at 250 ppm
  control efficacy, very good to excellent: plant damage (40% or less plant damage and/or 100% mortality): ≤ 40%
[4]
  control efficacy, very good to excellent: mortality: ≥ 80%

## COC(=O)C1CCN(Cc2cn(-c3ccc(Br)cc3)nc2-c2ccccc2F)CC1 [Compound 52]
[1]; sprayed at 50 ppm
  control efficacy, very good to excellent: feeding damage (40% or less feeding damage and/or 100% mortality): ≤ 40%
[1]; sprayed at 250 ppm
  control efficacy, very good to excellent: feeding damage (40% or less feeding damage and/or 100% mortality): ≤ 40%
[3]; sprayed at 250 ppm
  control efficacy, very good to excellent: plant damage (40% or less plant damage and/or 100% mortality): ≤ 40%

## COC(=O)C1CCN(Cc2cn(-c3ccc(C(F)(F)F)cc3)nc2-c2ccco2)CC1 [Compound 92]
[3]; sprayed at 250 ppm
  control efficacy, very good to excellent: plant damage (40% or less plant damage and/or 100% mortality): ≤ 40%

## N#CC1CCN(Cc2cn(-c3ccc(Cl)cc3)nc2-c2ccccc2F)CC1 [Compound 77]
[1]; sprayed at 50 ppm
  control efficacy, very good to excellent: feeding damage (40% or less feeding damage and/or 100% mortality): ≤ 40%
[1]; sprayed at 250 ppm
  control efficacy, very good to excellent: feeding damage (40% or less feeding damage and/or 100% mortality): ≤ 40%
[2]; sprayed at 50 ppm
  control efficacy, very good to excellent: feeding damage (40% or less feeding damage and/or 100% mortality): ≤ 40%
[3]; sprayed at 250 ppm
  control efficacy, very good to excellent: plant damage (40% or less plant damage and/or 100% mortality): ≤ 40%
